Literature values in patent US6727058B2, “Intergrase assay” (priority 1998, dated 2004).
At least one structure is not confirmed: it was looked up by name or label, or the drawing left a doubt.

By UniProt entry, the sequences of proteins in these tests, tags left out. Where a name states a change or a piece, a line headed by the entry shows the natural chain unless it says otherwise.
UniProt P04483: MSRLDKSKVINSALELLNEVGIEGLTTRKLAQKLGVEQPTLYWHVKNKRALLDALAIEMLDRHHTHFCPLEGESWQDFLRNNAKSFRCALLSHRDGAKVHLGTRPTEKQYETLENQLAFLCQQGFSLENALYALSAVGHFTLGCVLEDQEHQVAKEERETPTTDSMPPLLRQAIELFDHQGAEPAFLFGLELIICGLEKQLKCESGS

Target: tetR (Escherichia coli, UniProt P04483)
Settings: association constant; Takahashi et al. 1986

SMILES: CN(C)[C@@H]1C(O)=C(C(N)=O)C(=O)[C@@]2(O)C(O)=C3C(=O)c4c(O)cccc4[C@@](C)(O)[C@H]3C[C@@H]12 [tetracycline]
- ka of tetR binding tetracycline: ≈ 10^9 M^−1
